Assay results: patent US20160046678A1 (ZYNGENIA, published 2016)
These are yes or no findings as the source states them, for the method shown. Some entries that bind do so weakly or less than the wild type.

Protein sequences, listed by entry. Tags and fused reporters are not part of them. Residues count along the entry.
UniProt P21860, residues 20-643: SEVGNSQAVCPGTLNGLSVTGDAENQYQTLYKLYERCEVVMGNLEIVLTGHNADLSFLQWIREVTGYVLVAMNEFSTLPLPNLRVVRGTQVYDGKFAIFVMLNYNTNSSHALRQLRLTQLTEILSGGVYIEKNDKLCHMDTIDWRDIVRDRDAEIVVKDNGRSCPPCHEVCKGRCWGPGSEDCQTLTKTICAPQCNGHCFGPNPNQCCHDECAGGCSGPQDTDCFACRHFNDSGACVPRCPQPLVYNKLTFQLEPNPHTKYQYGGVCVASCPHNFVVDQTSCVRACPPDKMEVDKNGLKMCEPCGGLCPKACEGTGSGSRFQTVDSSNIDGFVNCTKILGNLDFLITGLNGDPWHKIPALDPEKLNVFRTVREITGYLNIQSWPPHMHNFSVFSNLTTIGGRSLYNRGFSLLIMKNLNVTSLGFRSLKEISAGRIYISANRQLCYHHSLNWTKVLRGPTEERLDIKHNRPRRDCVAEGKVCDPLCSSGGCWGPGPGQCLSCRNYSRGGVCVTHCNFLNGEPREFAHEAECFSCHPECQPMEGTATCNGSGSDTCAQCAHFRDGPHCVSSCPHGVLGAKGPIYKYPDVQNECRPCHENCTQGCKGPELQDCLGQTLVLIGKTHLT

biological target: ErbB3 (UniProt P21860); experiment: MRD screen, Example 48

| Binder | binding |
| --- | --- |
| LKFYMCQVYPSGNWNVCTATQ [EGC666] | binds |
| ANSWCHTLYWDLMYCVWQE [EGC623] | binds |
| LNFYICKLYPSANLHVCVDTL [EGC644] | binds |
| IRKPYCPFLNPTWYNECIQRS [EGC609] | binds |
| ADSWCHTLYWNLRHCEIQE [EGC596] | binds |
| VSEPYCPFLNPTWKAHCIELS [EGC628] | binds |
| NIDPYCPFLNPTWKAECIARI [EGC631] | binds |
| HKFYMCQVYPSEKWHVCVETL [EGC654] | binds |
| KGQPYCPFLNPIWKEQCLART [EGC620] | binds |
| YSEPYCPFVNPTWLDQCIART [EGC605] | binds |
| PREPYCPFLNPLWKNQCIERT [EGC632] | binds |
| NSEPYCPFLNPSWKAQCIARS [EGC595] | binds |
| TSEPYCPFENPIWKAQCISRS [EGC615] | binds |
| LSEPYCPFLNPSWKAECIARS [EGC655] | binds |
| IRVPYCPFQNPTWYDQCIART [EGC634] | binds |
| LSEPYCPFLNPTWKDQCIARS [EGC657] | binds |
| MREPYCPFLNPSWKEQCIARS [EGC671] | binds |
| SSEAYCPFLNPTWKQECIARL [EGC621] | binds |
| LNTPYCPFINPTWKDECLARS [EGC592] | binds |
| ISDPYCPFVNPYWKAECIART [EGC630] | binds |
| LSEPYCPFLNPTWKAACLARI [EGC608] | binds |

| Binder | binding |
| --- | --- |
| RSEPYCPFVNPIWKAECIVRS [EGC658] | binds |
| KSEPYCPFLNPYWKDQCIARS [EGC616] | binds |
| YSEPYCPFLNPTWKAQCMAMI [EGC606] | binds |
| VREPYCPFLNPTWKNECIART [EGC639] | binds |
| DSDPYCPFVNPIWKAQCIARS [EGC604] | binds |
| FIEPYCPFINPTWKAECLART [EGC651] | binds |
| PIEPYCPFQNPTWKAQCIART [EGC660] | binds |
| SSDPYCPFLNPTWYDQCIERY [EGC629] | binds |
| ISQPYCPFTNPTWLAECIARS [EGC590] | binds |
| PESWCHTLYWNLQHCLSQE [EGC602] | binds |
| QHEPYCPFLNPVWKHECIART [EGC625] | binds |
| TNEPYCPFLNPTWKQQCIART [EGC614] | binds |
| NSEPYCPFHNPTWKAACMART [EGC667] | binds |
| YEEHCRLFPADWICSLLQ [EGC594] | binds |
| SKFFMCQVYPSERWHVCIEPL [EGC665] | binds |
| PKFFMCQVYPSGKWHVCTGTV [EGC641] | binds |
| KEEAYCPFLNPLWKDECVART [EGC601] | binds |
| DNFYMCQVYPSLKWHICVSIL [EGC663] | binds |
| TRDPYCPFLNPIWKDECFART [EGC600] | binds |
| SSEPYCPFLNPIWKYHCIARS [EGC647] | binds |

Results, then the binder that gave them:

| binding | Binder |
| --- | --- |
| binds | LREPYCPFLNPTWKAECIARI [EGC617] |
| binds | RSEPYCPFLNPIWKEQCIART [EGC668] |
| binds | HSAPYCPFLNPIWKDECIARS [EGC627] |
| binds | SREPYCPFLNPTWKEQCIARI [EGC669] |
| binds | DKFYLCQIYPSERWHVCVWSS [EGC652] |
| binds | PGSPYCPFLNPFWKEQCIVRT [EGC648] |
| binds | LSEPYCPFLNPIWKEQCIARS [EGC656] |
| binds | GSEPYCPFFNPIWKDQCITRF [EGC612] |
| binds | VSEPYCPFLNPTWKAQCLNRI [EGC637] |
| binds | MSEPYCPFQNPTWKHECIART [EGC603] |
| binds | SSEPYCPFLNPTWKEQCIART [EGC597] |
| binds | QGEPYCPFLNPAWKDACIERL [EGC610] |
| binds | IREPYCPFLNPTWKAQCIART [EGC626] |
| binds | EKFKMCQIYPSKNWAVCVETF [EGC653] |
| binds | YEEHCALFPTDWICTLH [EGC649] |
| binds | PDSWCHTLYWHLQHCLSQE [EGC635] |
| binds | RSEPYCPFLNPVWKDQCIARS [EGC646] |
| binds | QFEPYCPFLNPTWKEQCIARI [EGC659] |
| binds | SMFFMCQVYPSEKWHVCVYPL [EGC664] |
| binds | TNDPYCPFLNPTWKAECIARH [EGC636] |
| binds | TIEPYCPFLNPIWKDQCIARS [EGC624] |
| binds | DTKPYCPFLNPIWKNQCIERT [EGC599] |
| binds | RSEPYCPFLNPTWKEHCIART [EGC613] |
| binds | LIEPYCPFLNPIWKDQCLART [EGC640] |
| binds | PKYYMCQIYPSLKWNVCLETL [EGC642] |
| binds | YRQPYCPFLNPTWKAQCMART [EGC661] |
| binds | PIDPYCPFLNPIWKEQCHARS [EGC638] |
